Measured values reported in the supplement of paper PMC4862054.
Most entries show no effect beyond the scatter of the controls.

Legend:
Assay in all cases: normalised response (% of control), CellTox Green; higher = less cell death (100 = DMSO, 0 = benzethonium chloride kill control)
Conditions in all cases: incubation time: 72 h
[1] = test system: BT-474
Description: (§1)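 DSRT, 72 h incubation, CellTox Green / CellTiter-Glo readout. Signal is normalised to DMSO and benzethonium chloride controls. Value is the normalised response at dose 2.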

[2] = test system: BT-549
Description: as §1

[3] = test system: CAL-120
Description: as §1

[4] = test system: CAL-148
Description: as §1

[5] = test system: CAL-51
Description: as §1

[6] = test system: CAL-85-1
Description: as §1

[7] = test system: DU-4475
Description: as §1

[8] = test system: HCC1143
Description: as §1

[9] = test system: HCC1599
Description: as §1

[10] = test system: HCC1937
Description: as §1

[11] = test system: HDQ-P1
Description: as §1

[12] = test system: Hs578T
Description: as §1

[13] = test system: MCF-10A
Description: as §1

[14] = test system: MDA-MB-231
Description: as §1

[15] = test system: MDA-MB-436
Description: as §1

[16] = test system: MDA-MB-453
Description: as §1

[17] = test system: MDA-MB-468
Description: as §1

[18] = test system: MFM-223
Description: as §1

SMILES | normalised response [1] [%] | normalised response [2] [%] | normalised response [3] [%] | normalised response [4] [%] | normalised response [5] [%] | normalised response [6] [%] | normalised response [7] [%] | normalised response [8] [%] | normalised response [9] [%] | normalised response [10] [%] | normalised response [11] [%] | normalised response [12] [%] | normalised response [13] [%] | normalised response [14] [%] | normalised response [15] [%] | normalised response [16] [%] | normalised response [17] [%] | normalised response [18] [%]
NC1(c2ccc(-c3nc4ccn5c(=O)[nH]nc5c4cc3-c3ccccc3)cc2)CCC1 [MK-2206] (1 nM) | 99.1 | 101 | 108 | 110 | 101 | 103 | 115 | 120 | 118 | 100 | 124 | 127 | 120 | 111 | 95 | 104 | 93.4 | 103
CCC(C)(C)C(=O)O[C@H]1C[C@@H](C)C=C2C=C[C@H](C)[C@H](CC[C@@H]3C[C@@H](O)CC(=O)O3)[C@H]21 [Simvastatin] (10 nM) | – | 94.1 | 99 | 96.1 | 115 | 97.3 | 98 | 110 | 93.8 | 97.6 | 102 | 130 | 74.8 | – | 103 | 96.5 | 68.5 | 81.2
O=C(/C=C/c1cccc(S(=O)(=O)Nc2ccccc2)c1)NO [Belinostat] (10 nM) | 92.2 | 111 | 99.6 | 98.3 | 70.4 | 91.8 | 107 | – | 103 | 75.3 | 117 | 94.7 | 111 | 81 | 55.3 | 105 | 57.9 | 101
COc1ncc(-c2ccc3nccc(-c4ccnnc4)c3c2)cc1NS(=O)(=O)c1ccc(F)cc1F (1 nM) | 103 | 99.2 | 102 | 111 | 114 | 98.1 | 110 | 110 | 118 | 113 | 121 | 115 | 112 | 103 | 108 | 101 | 60.6 | 104
C#Cc1cccc(Nc2ncnc3cc(OCCOC)c(OCCOC)cc23)c1 [Erlotinib] (10 nM) | 102 | 86.1 | 101 | 108 | 97.9 | 98.8 | 101 | 117 | 108 | 97.5 | 118 | 114 | 103 | 111 | 91.5 | 99.8 | 82.3 | 103
COc1cc2c(NC3CCN(C(C)C)CC3)nc(C3CCCCC3)nc2cc1OCCCN1CCCC1 [UNC0638] (10 nM) | 99.3 | 98.5 | 97.7 | – | 93.7 | 101 | 97 | 61.2 | 95.4 | 92.4 | 121 | 111 | 90.5 | 91 | 100 | – | 97 | 89.8
CC[C@]1(O)C[C@H]2CN(CCc3c([nH]c4ccccc34)[C@@](C(=O)OC)(c3cc4c(cc3OC)N(C=O)[C@H]3[C@@](O)(C(=O)OC)[C@H](OC(C)=O)[C@]5(CC)C=CCN6CC[C@]43[C@@H]65)C2)C1 [Vincristine] (1 nM) | 102 | 99.3 | 103 | 108 | 92 | 99.1 | 103 | 113 | 94.5 | 101 | – | 122 | 116 | 111 | 106 | 99.4 | 67.2 | 98.5
CCN(CC)CCCC(C)Nc1ccnc2cc(Cl)ccc12 (stereo unspecified) [Chloroquine] (100 nM) | 105 | 100 | 102 | 109 | 68.2 | 110 | 98.5 | – | 119 | 123 | 104 | 130 | 81.1 | 114 | – | 98.9 | 105 | 103
COc1nc(N)nc2c1ncn2[C@@H]1O[C@H](CO)[C@@H](O)[C@@H]1O [Nelarabine] (10 nM) | 100 | 79.5 | 98.5 | 97 | 64.3 | 91.8 | 92.5 | 73.3 | 88.7 | 61.6 | 98.2 | 101 | – | 92.3 | – | 95.5 | 81 | 99.2

Whole records as entered above. Values in the order: normalised response [1] [%] | normalised response [2] [%] | normalised response [3] [%] | normalised response [4] [%] | normalised response [5] [%] | normalised response [6] [%] | normalised response [7] [%] | normalised response [8] [%] | normalised response [9] [%] | normalised response [10] [%] | normalised response [11] [%] | normalised response [12] [%] | normalised response [13] [%] | normalised response [14] [%] | normalised response [15] [%] | normalised response [16] [%] | normalised response [17] [%] | normalised response [18] [%]
CCC(C)(C)C(=O)O[C@H]1C[C@@H](C)C=C2C=C[C@H](C)[C@H](CC[C@@H]3C[C@@H](O)CC(=O)O3)[C@H]21 [Simvastatin] (10 nM) is listed as – | 94.1 | 99 | 96.1 | 115 | 97.3 | 98 | 110 | 93.8 | 97.6 | 102 | 130 | 74.8 | – | 103 | 96.5 | 68.5 | 81.2
CCN(CC)CCCC(C)Nc1ccnc2cc(Cl)ccc12 (stereo unspecified) [Chloroquine] (100 nM) is listed as 105 | 100 | 102 | 109 | 68.2 | 110 | 98.5 | – | 119 | 123 | 104 | 130 | 81.1 | 114 | – | 98.9 | 105 | 103
